Measured values: article PMC7066131
These are yes or no findings as the source states them, for the method shown. Binding seen in cells or lysates may run through a third protein. Some binding calls cover weakened binding; strength is not graded here. Tags and fused reporters may be left off the sequences shown.

What was measured:
Assay in all cases: co-IP; co-IP of MYC-PAQR3 with EGFP-NBEAL1 domain constructs (PH-BEACH-WD40, BEACH-WD40, BEACH) and full length EGFP-NBEAL1 as positive control (Supplemental Fig. 6)
[1] = molecular target: T1, EGFP-PH-BEACH-WD40 (NBEAL1 aa 1815–2694) (human) (UniProt Q6ZS30)
T1 sequence: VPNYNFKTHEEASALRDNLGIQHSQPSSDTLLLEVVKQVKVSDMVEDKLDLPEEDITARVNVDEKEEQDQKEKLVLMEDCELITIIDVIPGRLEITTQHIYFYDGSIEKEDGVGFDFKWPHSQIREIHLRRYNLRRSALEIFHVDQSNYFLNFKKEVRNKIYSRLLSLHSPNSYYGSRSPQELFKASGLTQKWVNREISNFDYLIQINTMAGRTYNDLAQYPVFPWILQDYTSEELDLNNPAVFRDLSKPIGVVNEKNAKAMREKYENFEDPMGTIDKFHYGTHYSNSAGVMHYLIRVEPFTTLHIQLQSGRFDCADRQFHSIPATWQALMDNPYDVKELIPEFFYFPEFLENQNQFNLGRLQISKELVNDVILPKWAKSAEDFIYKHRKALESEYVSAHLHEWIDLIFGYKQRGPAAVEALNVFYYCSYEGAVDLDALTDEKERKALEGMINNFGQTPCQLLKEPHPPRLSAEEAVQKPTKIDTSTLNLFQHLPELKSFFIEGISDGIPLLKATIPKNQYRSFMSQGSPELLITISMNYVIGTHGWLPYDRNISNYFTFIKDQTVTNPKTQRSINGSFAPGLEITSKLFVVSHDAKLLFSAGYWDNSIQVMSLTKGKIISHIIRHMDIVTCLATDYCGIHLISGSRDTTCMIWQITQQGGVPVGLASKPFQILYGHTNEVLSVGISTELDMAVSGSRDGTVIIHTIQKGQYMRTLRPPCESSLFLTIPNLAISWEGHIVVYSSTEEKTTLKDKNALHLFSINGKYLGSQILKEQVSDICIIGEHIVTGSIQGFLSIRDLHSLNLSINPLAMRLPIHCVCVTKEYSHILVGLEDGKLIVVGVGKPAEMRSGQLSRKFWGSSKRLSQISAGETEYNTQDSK

[2] = molecular target: T2, EGFP-BEACH (NBEAL1 aa 1991–2284) (human) (UniProt Q6ZS30)
T2 sequence: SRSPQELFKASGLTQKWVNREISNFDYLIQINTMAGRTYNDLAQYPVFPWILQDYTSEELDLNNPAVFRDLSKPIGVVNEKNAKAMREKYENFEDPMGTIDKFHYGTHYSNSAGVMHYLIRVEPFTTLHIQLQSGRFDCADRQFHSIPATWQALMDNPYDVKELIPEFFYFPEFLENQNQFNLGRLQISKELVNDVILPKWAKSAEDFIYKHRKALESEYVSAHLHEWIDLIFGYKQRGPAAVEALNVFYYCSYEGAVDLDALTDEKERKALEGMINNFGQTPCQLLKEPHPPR

[3] = molecular target: T3, EGFP-BEACH-WD40 (NBEAL1 1969–2694) (human) (UniProt Q6ZS30)
T3 sequence: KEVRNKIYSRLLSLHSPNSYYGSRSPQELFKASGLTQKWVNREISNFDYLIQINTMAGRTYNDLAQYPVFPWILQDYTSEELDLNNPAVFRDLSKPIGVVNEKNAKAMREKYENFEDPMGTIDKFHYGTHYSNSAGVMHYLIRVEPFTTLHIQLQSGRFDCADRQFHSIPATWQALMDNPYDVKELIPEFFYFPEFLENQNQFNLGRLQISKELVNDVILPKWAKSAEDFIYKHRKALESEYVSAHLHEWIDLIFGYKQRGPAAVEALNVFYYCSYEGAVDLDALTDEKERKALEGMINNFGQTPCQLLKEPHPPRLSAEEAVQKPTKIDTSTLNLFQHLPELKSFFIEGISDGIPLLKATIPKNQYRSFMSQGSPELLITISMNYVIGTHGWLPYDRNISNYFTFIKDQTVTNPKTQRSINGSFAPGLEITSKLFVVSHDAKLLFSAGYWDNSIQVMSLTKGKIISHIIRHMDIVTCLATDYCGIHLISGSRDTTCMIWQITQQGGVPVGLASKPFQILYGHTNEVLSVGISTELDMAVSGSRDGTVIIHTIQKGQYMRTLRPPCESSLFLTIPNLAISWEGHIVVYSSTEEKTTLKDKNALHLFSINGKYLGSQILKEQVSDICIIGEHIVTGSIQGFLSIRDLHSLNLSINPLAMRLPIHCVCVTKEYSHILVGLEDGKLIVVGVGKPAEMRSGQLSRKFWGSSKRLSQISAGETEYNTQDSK

Measured: binding

B1: MYC-tagged human PAQR3 (progestin and adipoQ receptor family member 3) (protein, UniProt Q6TCH7 1-311)
chain: MHQKLLKSAHYIELGSYQYWPVLVPRGIRLYTYEQIPGSLKDNPYITDGYRAYLPSRLCIKSLFILSNETVNIWSHLLGFFLFFTLGIYDMTSVLPSASASREDFVICSICLFCFQVCMLCSVGYHLFSCHRSEKTCRRWMALDYAGISIGILGCYVSGVFYAFYCNNYWRQVYLITVLAMILAVFFAQIHPNYLTQQWQRLRSIIFCSVSGYGVIPTLHWVWLNGGIGAPIVQDFAPRVIVMYMIALLAFLFYISKVPERYFPGQLNYLGSSHQIWHILAVVMLYWWHQSTVYVMQYRHSKPCPDYVSHL
binds: [1] | [2] | [3]
